# Several values for one entry are separate records, joined by “and”; a condition that tells them apart may be missing. Identical values can stand only once. The campaign covered roughly 580,000 compounds. About 6,100 (1.1%) were called active. The shares of active, inactive and inconclusive entries below differ from those in the screen. Calls follow the shape of the dose curve; as a rule, active = well fitted inhibition curve with a large enough effect; inconclusive = small, poorly fitted or top-dose-only effect, or another doubt; inactive = no such curve, though single readings can be large or run the other way. Where the call is inconclusive, the potency comes from a doubtful curve fit.
# Amino acid sequences for entries named in this document (tags omitted). A change or cut given only in a name is not applied to a line headed by its entry.
# UniProt P18054: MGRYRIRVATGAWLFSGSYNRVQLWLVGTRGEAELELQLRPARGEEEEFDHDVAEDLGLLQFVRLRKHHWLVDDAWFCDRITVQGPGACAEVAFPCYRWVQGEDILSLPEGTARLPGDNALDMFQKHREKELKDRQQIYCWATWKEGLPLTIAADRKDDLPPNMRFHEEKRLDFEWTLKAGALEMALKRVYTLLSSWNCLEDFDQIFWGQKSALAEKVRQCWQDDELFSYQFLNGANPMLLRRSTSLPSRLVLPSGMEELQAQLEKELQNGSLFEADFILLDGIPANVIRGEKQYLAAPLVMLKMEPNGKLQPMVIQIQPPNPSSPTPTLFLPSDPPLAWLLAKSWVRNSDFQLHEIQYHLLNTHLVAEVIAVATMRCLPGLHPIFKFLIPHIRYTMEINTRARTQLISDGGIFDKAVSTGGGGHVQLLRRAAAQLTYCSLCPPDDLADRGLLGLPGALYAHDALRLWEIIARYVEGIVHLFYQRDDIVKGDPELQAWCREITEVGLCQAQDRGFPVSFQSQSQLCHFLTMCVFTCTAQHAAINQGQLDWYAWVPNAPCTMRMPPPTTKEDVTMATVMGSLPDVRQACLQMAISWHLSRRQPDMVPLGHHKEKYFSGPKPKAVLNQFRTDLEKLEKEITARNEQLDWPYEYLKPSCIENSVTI
# Target: Polyunsaturated fatty acid lipoxygenase ALOX12 (Homo sapiens) (UniProt P18054)
# Test: Primary qHTS assay for inhibitors of human arachidonate 12S-lipoxygenase (ALOX12): Round 2
# Details: purified 12hLO, xylenol orange hydroperoxide absorbance; series mostly up to 108 µM
# Outline: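 Purified human 12hLO (150 nM final) in 25 mM Hepes, 0.01% Triton X-100, pH 7.0 was preincubated 15 min at room temperature with compound. Then 40 uM arachidonic acid was added, 30 min. Hydroperoxide was read by Fe-XO absorbance ratio 573/405 nm.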
# Potency is read from the fitted curve at half-maximal effect.
row,Compound,Potency
1,COc1ccc(-c2nc3c(c(=O)[nH]2)CCN(C(=O)c2cc(Cl)ccc2OC)C3)cc1,"inconclusive: 1.12 µM [inhibitor, full curve, poor fit]"
2,Clc1ccc(-c2ccn[nH]2)cc1,"inconclusive: 5.62 µM [inhibitor, full curve, poor fit]"
3,COc1cccc(/C=C2\SC(=S)N(CCCC(=O)N3CCOCC3)C2=O)c1,"inconclusive: 50.1 µM [inhibitor, single point]"
4,N#Cc1ccccc1OCC(=O)Nc1cc(S(=O)(=O)N2CCCCC2)ccc1N1CCOCC1,inactive
5,O=C(C[C@@H]1O[C@H](CNC(=O)c2ccccc2)[C@@H](O)[C@H]1O)NCCN1CCOCC1,inactive
6,O=[N+]([O-])c1cc(Cl)c2cccnc2c1O,"inconclusive: 50.1 µM [inhibitor, partial curve, poor fit]"
7,O[C@@H]1C[C@@H](c2nnc3n2CCN(Cc2ccc4c(c2)CCO4)C3)N(Cc2ccccc2)C1,"inconclusive: 7.94 µM [inhibitor, partial curve, poor fit]"
8,CC(C)(O)P(=O)(O)CCc1ccccc1,"inconclusive: 31.6 µM [inhibitor, single point]"
9,CCCCS(=O)(=O)Nc1ccc([C@H]2OCC(=O)N(Cc3ccccc3)[C@@H]2CO)cc1,"inconclusive: 35.5 µM [inhibitor, partial curve, poor fit]"
10,CCOC(=O)c1ccc(Oc2c(C(F)(F)F)oc3cc(OC(=O)c4ccccc4)ccc3c2=O)cc1,"inconclusive: 50.1 µM [inhibitor, single point]"
11,O=C(NCCc1ccccn1)C1CCC1,inactive
12,COc1ccc2c(c1)c(C(O)CN1CCN(Cc3ccc4c(c3)OCO4)CC1)c(C)n2C (stereo not given),inactive
13,CCCCCCCCCCCCC/C=C/[C@@H](O)[C@@H](N)CO,"inactive and inconclusive: 70.8 µM [inhibitor, partial curve, poor fit]"
14,Cc1cccc(-c2nsc(SCC(=O)Nc3nccs3)n2)c1,"inconclusive: 2.51 µM [inhibitor, partial curve, poor fit]"
15,CCOC(=O)c1c(C)oc2c(F)c(F)c(F)c(F)c2c1=O,"inconclusive: 5.62 µM [inhibitor, partial curve, poor fit]"
16,CCOC(=O)c1sc(-c2ccc(OC)c(OC)c2)cc1NC(=O)c1ccco1,inactive
17,Cc1ccc(C)c(NC(=S)NCCc2ccc(S(N)(=O)=O)cc2)c1,"inconclusive: 89.1 µM [inhibitor, single point]"
18,O=C(CCNS(=O)(=O)c1ccc2[nH]c(=O)oc2c1)Nc1cccc(Br)c1,"inconclusive: 14.1 µM [inhibitor, partial curve, poor fit]"
19,CCc1ccccc1OCC(=O)Nc1cccc(S(=O)(=O)NC2=NCCCCC2)c1,"inconclusive: 126 µM [inhibitor, single point]"
20,Cc1noc(C(C)C)c1C(=O)NCc1cccnc1OC1CCCC1,inactive

row,Compound,Potency
1,Cc1cc(=O)oc2cc(OCC(=O)Nc3ccc(C(C)C)cc3)ccc12,"inconclusive: 44.7 µM [inhibitor, partial curve, poor fit]"
2,COC(=O)c1cccc(COC(=O)CCC(=O)c2ccc3c(c2)OCCO3)c1,"inconclusive: 79.4 µM [inhibitor, single point]"
3,COc1ccc(C(=O)C2CCCN(Cc3cccn3-c3ccc(Cl)cn3)C2)c(OC)c1 (stereo not given),inactive
4,CCc1nnc(NC(=O)[C@@H](NC(=O)c2ccc(C(C)(C)C)cc2)C(C)C)s1,inactive
5,CCn1cc(C(=O)OCc2cccc(Br)c2)c(=O)c2ccc(C)nc21,"inconclusive: 63.1 µM [inhibitor, partial curve, poor fit]"
6,ClC(=C\c1ccccc1)/C=N/N1CCN(Cc2cccc3ccccc23)CC1,"inconclusive: 0.447 µM [inhibitor, full curve, poor fit]"
7,COc1c2c(c(OC)c3c1c(=O)c1ccccc1n3C)OCO2,"inconclusive: 35.5 µM [inhibitor, single point]"
8,O=C(O)C[C@H]1c2cc(C(F)(F)F)ccc2S(=O)(=O)N1C1CCN(Cc2ccccc2)CC1,"inconclusive: 31.6 µM [inhibitor, partial curve, poor fit]"
9,COc1ccc(CC(=O)NCCc2sc3nc(-c4ccc(OC)cc4)nn3c2C)cc1,"inconclusive: 2.51 µM [inhibitor, full curve, poor fit]"
10,COCCOC1CN(C2CCN(S(=O)(=O)c3cccs3)CC2)C12CCCCC2 (stereo not given),"inconclusive: 35.5 µM [inhibitor, partial curve]"
11,CC(=O)Nc1ccc(C(=O)NC[C@@H]2C=C(C)[C@H](CC(=O)NCc3ccc(C#N)cc3)C[C@H]2C(C)C)cc1,"inconclusive: 56.2 µM [inhibitor, partial curve]"
12,N#CCCNC12CC3CC(CC(C3)C1)C2,"inconclusive: 89.1 µM [inhibitor, single point]"
13,CNC(=O)NC(=O)COC(=O)c1cc(-c2ccco2)nc2ccccc12,active: 15.8 µM
14,CCOC(=O)C1=C(O)/C(=C\c2cc(C)n(-c3ccccc3F)c2C)N=C1C,"inconclusive: 44.7 µM [inhibitor, partial curve, poor fit]"
15,O=C(Nc1ccnn1Cc1cccc(Cl)c1)C1CCN(S(=O)(=O)c2ccc(Cl)cc2)CC1,"inconclusive: 31.6 µM [inhibitor, single point]"
16,COC(=O)c1cccc(Nc2cc(-c3ccccc3)ncn2)c1,"inconclusive: 79.4 µM [inhibitor, single point]"
17,C=CCc1cccc(C=Nc2cccn3cc(-c4ccccc4)nc23)c1O,"inconclusive: 2.82 µM [inhibitor, single point]"
18,CCOC(=O)Nc1ccc2c(c1)N(C(=O)OCCN(C)C)c1ccccc1CC2,"inconclusive: 11.2 µM [inhibitor, partial curve, poor fit]"
19,Cc1ccc(-c2nc(=O)[nH]c3ccccc23)cc1,"inconclusive: 35.5 µM [inhibitor, single point]"
20,Cc1ccc(NC(=S)Nc2cc(-c3ccccc3)[nH]n2)cc1Cl,"inconclusive: 15.8 µM [inhibitor, full curve, poor fit]"

# Reference: PubChem BioAssay AID1671190 (National Center for Advancing Translational Sciences (NCATS), 2021)
